Measured values taken from patent US11623944B2, “Paenibacillus strain, antifungal compounds, and methods for their use” (Bayer CropScience LP, priority 2015, dated 2023).
At least one structure is not confirmed: it was looked up by name or label, or the drawing left a doubt.

System: Paenibacillus sp. strain NRRL B-50972
Test: Antibiotic sensitivity on sLB agar
Format: cell-based
Conditions: antibiotic 10 μg/mL; growth after 24, 48, 72 hours at 30° C.

NC[C@H]1O[C@H](O[C@H]2[C@H](O)[C@@H](O[C@H]3O[C@H](CO)[C@@H](O)[C@H](N)[C@H]3O)[C@H](N)C[C@@H]2N)[C@H](O)[C@@H](O)[C@@H]1O [Kanamycin]
Sensitive/Resistant: Sensitive
